No constants are given. Whether binding was seen depends on the method and setting. Binding seen in cells or lysates may run through a third protein. Some entries that bind do so weakly or less than the wild type.
Biological target: MCL1 (human (endogenous in primary AML cells)) (UniProt Q07820)
Assay: co-IP

By UniProt entry, the sequences of proteins in these tests, tags left out.
UniProt Q07820: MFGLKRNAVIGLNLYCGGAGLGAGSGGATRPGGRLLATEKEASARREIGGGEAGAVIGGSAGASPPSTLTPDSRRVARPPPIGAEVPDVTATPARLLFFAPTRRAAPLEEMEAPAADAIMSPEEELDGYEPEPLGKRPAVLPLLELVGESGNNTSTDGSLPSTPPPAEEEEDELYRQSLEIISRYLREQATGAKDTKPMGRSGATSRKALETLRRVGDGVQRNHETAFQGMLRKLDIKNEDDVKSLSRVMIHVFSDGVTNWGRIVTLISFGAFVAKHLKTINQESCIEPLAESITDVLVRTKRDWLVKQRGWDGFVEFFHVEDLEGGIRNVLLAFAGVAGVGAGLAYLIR
UniProt Q7Z5L9: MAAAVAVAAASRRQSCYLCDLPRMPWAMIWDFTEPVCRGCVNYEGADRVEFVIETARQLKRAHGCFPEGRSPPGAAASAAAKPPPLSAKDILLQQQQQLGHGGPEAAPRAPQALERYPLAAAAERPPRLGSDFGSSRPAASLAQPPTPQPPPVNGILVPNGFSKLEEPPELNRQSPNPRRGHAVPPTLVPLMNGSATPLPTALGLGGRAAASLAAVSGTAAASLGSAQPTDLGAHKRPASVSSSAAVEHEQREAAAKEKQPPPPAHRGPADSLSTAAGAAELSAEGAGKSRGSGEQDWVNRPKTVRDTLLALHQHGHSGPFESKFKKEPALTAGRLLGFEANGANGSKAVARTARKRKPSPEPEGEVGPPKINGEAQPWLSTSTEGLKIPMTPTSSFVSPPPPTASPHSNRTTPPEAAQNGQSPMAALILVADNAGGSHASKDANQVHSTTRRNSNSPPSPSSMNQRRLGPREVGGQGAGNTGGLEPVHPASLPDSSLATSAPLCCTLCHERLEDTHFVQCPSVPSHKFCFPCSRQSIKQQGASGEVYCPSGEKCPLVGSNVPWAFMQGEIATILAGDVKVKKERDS

Interferon Regulatory Factor 2 Binding Protein 2 (from UniProt Q7Z5L9 1-587)
binding: binds
